Publication PMC11558151
These are yes or no findings as the source states them, for the method shown. In cells and extracts the contact can be indirect. Some results given as binding are weak or reduced against the parent protein; the word gives no strength. For some of these results: Sequences can lack the tags named with a protein.

T1: Toll-Like Receptor 9 (TLR9), endogenous in primary hepatic macrophages (mouse (endogenous in primary hepatic macrophages)) (UniProt Q9EQU3)
T1 sequence: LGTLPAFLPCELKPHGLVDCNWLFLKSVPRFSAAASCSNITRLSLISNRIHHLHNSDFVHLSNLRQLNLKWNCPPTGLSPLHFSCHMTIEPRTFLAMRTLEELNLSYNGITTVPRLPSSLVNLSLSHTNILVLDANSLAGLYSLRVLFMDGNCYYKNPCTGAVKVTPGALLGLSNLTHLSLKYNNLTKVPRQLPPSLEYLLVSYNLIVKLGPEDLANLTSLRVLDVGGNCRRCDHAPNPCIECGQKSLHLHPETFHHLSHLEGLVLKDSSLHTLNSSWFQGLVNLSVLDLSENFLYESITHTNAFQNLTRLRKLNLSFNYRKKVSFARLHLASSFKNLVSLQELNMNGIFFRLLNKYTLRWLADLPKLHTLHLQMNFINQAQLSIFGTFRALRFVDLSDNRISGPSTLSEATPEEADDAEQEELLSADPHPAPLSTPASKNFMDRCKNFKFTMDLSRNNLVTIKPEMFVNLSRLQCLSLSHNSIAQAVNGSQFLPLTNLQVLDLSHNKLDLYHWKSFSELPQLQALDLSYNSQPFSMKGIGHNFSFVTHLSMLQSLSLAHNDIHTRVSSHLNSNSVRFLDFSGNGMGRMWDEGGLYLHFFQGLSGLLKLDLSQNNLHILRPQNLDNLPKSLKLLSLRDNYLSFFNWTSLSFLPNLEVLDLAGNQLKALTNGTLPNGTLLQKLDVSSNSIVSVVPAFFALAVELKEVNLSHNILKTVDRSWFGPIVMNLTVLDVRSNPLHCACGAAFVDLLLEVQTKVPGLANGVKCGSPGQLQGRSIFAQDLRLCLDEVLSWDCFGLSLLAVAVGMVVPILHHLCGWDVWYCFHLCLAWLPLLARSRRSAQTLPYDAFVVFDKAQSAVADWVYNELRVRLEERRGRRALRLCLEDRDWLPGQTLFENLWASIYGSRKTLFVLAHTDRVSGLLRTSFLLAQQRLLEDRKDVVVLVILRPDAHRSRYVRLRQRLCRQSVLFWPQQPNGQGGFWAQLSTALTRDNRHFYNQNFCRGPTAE

T2: TLR9 with a FLAG tag (mouse Tlr9 pcDNA3.1-FLAG-C), full-length (mouse) (UniProt Q9EQU3)
T2 sequence: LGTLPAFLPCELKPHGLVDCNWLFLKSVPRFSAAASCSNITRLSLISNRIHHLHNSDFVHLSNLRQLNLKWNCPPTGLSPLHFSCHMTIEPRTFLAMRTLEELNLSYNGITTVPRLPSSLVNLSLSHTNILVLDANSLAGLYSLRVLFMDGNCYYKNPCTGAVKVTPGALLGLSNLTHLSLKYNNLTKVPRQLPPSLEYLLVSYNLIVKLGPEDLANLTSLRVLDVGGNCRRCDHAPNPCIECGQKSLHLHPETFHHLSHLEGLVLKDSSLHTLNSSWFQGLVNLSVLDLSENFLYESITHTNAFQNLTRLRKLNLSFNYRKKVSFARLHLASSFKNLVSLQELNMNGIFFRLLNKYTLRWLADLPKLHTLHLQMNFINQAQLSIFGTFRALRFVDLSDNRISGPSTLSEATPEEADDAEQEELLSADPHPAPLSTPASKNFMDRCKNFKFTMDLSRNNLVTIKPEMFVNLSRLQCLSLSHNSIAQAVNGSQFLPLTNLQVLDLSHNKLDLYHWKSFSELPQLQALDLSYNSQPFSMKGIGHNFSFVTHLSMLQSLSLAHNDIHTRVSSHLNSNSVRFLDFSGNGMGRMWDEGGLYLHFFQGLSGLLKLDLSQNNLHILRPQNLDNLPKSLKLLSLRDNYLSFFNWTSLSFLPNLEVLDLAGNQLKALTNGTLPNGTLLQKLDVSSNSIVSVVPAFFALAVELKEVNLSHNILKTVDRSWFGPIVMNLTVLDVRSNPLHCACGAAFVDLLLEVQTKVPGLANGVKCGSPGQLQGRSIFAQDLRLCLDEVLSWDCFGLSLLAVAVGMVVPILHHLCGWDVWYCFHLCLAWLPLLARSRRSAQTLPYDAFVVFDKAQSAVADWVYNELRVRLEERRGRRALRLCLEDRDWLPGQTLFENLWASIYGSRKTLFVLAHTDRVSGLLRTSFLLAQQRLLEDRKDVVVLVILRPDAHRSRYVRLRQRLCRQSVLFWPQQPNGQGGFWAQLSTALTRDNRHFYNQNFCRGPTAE

T3: HA-TLR9 (UniProt Q9EQU3)
T3 sequence: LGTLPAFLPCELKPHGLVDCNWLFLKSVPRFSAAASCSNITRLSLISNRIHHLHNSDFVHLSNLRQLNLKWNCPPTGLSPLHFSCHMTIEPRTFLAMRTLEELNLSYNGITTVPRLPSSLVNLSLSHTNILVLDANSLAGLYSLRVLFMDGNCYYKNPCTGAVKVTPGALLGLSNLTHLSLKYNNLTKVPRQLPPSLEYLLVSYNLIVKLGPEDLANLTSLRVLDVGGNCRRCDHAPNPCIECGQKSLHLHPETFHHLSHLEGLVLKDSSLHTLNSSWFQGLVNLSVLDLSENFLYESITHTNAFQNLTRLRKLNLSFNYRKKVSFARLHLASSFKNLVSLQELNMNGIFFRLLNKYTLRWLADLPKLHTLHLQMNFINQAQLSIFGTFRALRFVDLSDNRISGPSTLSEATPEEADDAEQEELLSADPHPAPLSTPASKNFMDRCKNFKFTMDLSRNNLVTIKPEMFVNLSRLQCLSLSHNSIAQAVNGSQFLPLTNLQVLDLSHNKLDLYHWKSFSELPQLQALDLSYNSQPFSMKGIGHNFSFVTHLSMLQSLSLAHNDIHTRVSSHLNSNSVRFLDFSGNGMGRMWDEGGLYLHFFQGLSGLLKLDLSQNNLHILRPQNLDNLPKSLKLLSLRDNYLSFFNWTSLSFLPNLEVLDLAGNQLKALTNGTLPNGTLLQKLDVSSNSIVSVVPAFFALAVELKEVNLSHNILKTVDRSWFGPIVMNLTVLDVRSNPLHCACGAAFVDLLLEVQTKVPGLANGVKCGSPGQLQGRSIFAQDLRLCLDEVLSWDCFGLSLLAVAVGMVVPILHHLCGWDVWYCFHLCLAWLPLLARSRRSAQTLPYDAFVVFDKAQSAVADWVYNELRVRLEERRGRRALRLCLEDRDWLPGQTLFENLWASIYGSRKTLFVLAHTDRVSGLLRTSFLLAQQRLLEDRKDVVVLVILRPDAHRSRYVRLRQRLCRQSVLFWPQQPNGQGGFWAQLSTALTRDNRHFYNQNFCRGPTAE


Columns and labels:
[1] = biological target: T1, Toll-Like Receptor 9 (TLR9), endogenous in primary hepatic macrophages (mouse (endogenous in primary hepatic macrophages)); test: co-IP; endogenous proteins in primary hepatic macrophages; cells lysed in RIPA buffer, lysate incubated with antibody (GCA or TLR9) and protein A/G beads at 4 °C overnight; western blot
[2] = biological target: T2, TLR9 with a FLAG tag (mouse Tlr9 pcDNA3.1-FLAG-C), full-length (mouse); test: co-IP; HEK293T cells transfected with MYC-tagged GCA constructs and FLAG-tagged TLR9; lysates immunoprecipitated with anti-FLAG antibody, immunoblotted with anti-FLAG or anti-MYC
[3] = biological target: T3, HA-TLR9; test: co-IP; HEK293T cells transfected with Myc-GCA and HA-TLR9; RIPA lysate, antibody and protein A/G beads at 4 °C overnight; western blot

Row | Binder | binding [1] | binding [2] | binding [3]
1 | grancalcin (GCA), endogenous in primary hepatic macrophages (protein, UniProt Q8VC88 1-220) MAYPGYGGAFGNFSGQIPGMQMQMGQPMPGAGPNMFSGGYPGYLGYSDSYSPADDSMWTYFTAVAGQDGEVDAEELQRCLTQSGISGTYAPFSLETCRIMIAMLDRDYTGKMGFNEFKELWAALNAWKQNFMTIDQDQSGTVEHHELSQAIALMGYRLSPQTLAAIVRRYSKNGRIFFDDYVACCVKLRALTDFFRRRDHLQQGIVNFMYEDFLQGTMTI | binds | – | –
2 | Myc-GCA, full length (FL) mouse GCA with an MYC tag (protein, UniProt Q8VC88 1-220) MAYPGYGGAFGNFSGQIPGMQMQMGQPMPGAGPNMFSGGYPGYLGYSDSYSPADDSMWTYFTAVAGQDGEVDAEELQRCLTQSGISGTYAPFSLETCRIMIAMLDRDYTGKMGFNEFKELWAALNAWKQNFMTIDQDQSGTVEHHELSQAIALMGYRLSPQTLAAIVRRYSKNGRIFFDDYVACCVKLRALTDFFRRRDHLQQGIVNFMYEDFLQGTMTI | – | binds | binds
3 | mouse Gca delete 1–50 with an MYC tag (dLNTD, deletion of lipophilic N-terminal extension domain) (domain or fragment, UniProt Q8VC88 51-220) SPADDSMWTYFTAVAGQDGEVDAEELQRCLTQSGISGTYAPFSLETCRIMIAMLDRDYTGKMGFNEFKELWAALNAWKQNFMTIDQDQSGTVEHHELSQAIALMGYRLSPQTLAAIVRRYSKNGRIFFDDYVACCVKLRALTDFFRRRDHLQQGIVNFMYEDFLQGTMTI | – | no binding | –
